Assay results taken from PMC2938476.
These are yes or no findings as the source states them, for the method shown. Binding seen in cells or lysates may run through a third protein. Some binding calls cover weakened binding; strength is not graded here. Where a sequence is shown, tags or fusion partners need not be part of it.

T1: fibrillarin (human (endogenous in U2OS)) (UniProt P22087)
T1 sequence: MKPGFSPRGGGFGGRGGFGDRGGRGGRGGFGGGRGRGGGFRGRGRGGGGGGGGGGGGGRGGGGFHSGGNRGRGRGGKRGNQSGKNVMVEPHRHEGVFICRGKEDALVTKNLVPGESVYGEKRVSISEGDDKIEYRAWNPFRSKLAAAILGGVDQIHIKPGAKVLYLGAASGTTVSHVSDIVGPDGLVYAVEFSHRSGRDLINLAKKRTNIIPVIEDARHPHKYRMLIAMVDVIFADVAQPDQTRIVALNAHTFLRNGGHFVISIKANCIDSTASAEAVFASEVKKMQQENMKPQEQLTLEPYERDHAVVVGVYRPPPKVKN

T2: WTNop58-GFP (human) (UniProt Q9Y2X3)
T2 sequence: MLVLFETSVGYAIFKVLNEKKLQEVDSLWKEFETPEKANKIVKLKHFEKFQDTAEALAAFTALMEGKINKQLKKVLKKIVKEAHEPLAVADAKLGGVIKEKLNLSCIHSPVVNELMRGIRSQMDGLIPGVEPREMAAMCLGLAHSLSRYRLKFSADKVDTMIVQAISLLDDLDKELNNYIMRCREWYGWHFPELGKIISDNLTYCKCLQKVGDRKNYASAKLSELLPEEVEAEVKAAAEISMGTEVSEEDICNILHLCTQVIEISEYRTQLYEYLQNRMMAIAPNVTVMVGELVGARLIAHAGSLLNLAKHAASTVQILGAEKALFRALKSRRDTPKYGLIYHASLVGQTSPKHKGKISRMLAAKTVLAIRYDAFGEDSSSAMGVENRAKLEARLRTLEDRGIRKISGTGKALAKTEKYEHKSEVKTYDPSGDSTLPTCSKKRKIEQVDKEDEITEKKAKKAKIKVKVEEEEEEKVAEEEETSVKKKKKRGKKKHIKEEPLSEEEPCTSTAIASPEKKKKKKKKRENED


Legend:
[1] = target: T1, fibrillarin (human (endogenous in U2OS)); assay: co-IP; IP of endogenous fibrillarin from cells transiently cotransfected with WTNop58-mCherry and/or 2mutNop58-GFP (Figure S5B)
WTNop58-GFP (human) = target: T2, WTNop58-GFP (human); assay: co-IP; anti-GFP IP (GFP-TrapA beads, cell extract in HNTG buffer, 2 hr, 4°C) from U2OS cell nuclei stably expressing WTNop58-GFP or 2mutNop58-GFP; quantitative western blotting for fibrillarin (Figure S5C)

| binding [1] | binding (WTNop58-GFP (human)) | Binder |
| --- | --- | --- |
| binds | – | WTNop58-mCherry (protein, UniProt Q9Y2X3 1-529) MLVLFETSVGYAIFKVLNEKKLQEVDSLWKEFETPEKANKIVKLKHFEKFQDTAEALAAFTALMEGKINKQLKKVLKKIVKEAHEPLAVADAKLGGVIKEKLNLSCIHSPVVNELMRGIRSQMDGLIPGVEPREMAAMCLGLAHSLSRYRLKFSADKVDTMIVQAISLLDDLDKELNNYIMRCREWYGWHFPELGKIISDNLTYCKCLQKVGDRKNYASAKLSELLPEEVEAEVKAAAEISMGTEVSEEDICNILHLCTQVIEISEYRTQLYEYLQNRMMAIAPNVTVMVGELVGARLIAHAGSLLNLAKHAASTVQILGAEKALFRALKSRRDTPKYGLIYHASLVGQTSPKHKGKISRMLAAKTVLAIRYDAFGEDSSSAMGVENRAKLEARLRTLEDRGIRKISGTGKALAKTEKYEHKSEVKTYDPSGDSTLPTCSKKRKIEQVDKEDEITEKKAKKAKIKVKVEEEEEEKVAEEEETSVKKKKKRGKKKHIKEEPLSEEEPCTSTAIASPEKKKKKKKKRENED |
| binds | – | 2mutNop58-GFP (K467R, K497R) (protein, UniProt Q9Y2X3 1-529) MLVLFETSVGYAIFKVLNEKKLQEVDSLWKEFETPEKANKIVKLKHFEKFQDTAEALAAFTALMEGKINKQLKKVLKKIVKEAHEPLAVADAKLGGVIKEKLNLSCIHSPVVNELMRGIRSQMDGLIPGVEPREMAAMCLGLAHSLSRYRLKFSADKVDTMIVQAISLLDDLDKELNNYIMRCREWYGWHFPELGKIISDNLTYCKCLQKVGDRKNYASAKLSELLPEEVEAEVKAAAEISMGTEVSEEDICNILHLCTQVIEISEYRTQLYEYLQNRMMAIAPNVTVMVGELVGARLIAHAGSLLNLAKHAASTVQILGAEKALFRALKSRRDTPKYGLIYHASLVGQTSPKHKGKISRMLAAKTVLAIRYDAFGEDSSSAMGVENRAKLEARLRTLEDRGIRKISGTGKALAKTEKYEHKSEVKTYDPSGDSTLPTCSKKRKIEQVDKEDEITEKKAKKAKIKVRVEEEEEEKVAEEEETSVKKKKKRGKKKHIREEPLSEEEPCTSTAIASPEKKKKKKKKRENED |
| – | binds | fibrillarin (protein, UniProt P22087 1-321) MKPGFSPRGGGFGGRGGFGDRGGRGGRGGFGGGRGRGGGFRGRGRGGGGGGGGGGGGGRGGGGFHSGGNRGRGRGGKRGNQSGKNVMVEPHRHEGVFICRGKEDALVTKNLVPGESVYGEKRVSISEGDDKIEYRAWNPFRSKLAAAILGGVDQIHIKPGAKVLYLGAASGTTVSHVSDIVGPDGLVYAVEFSHRSGRDLINLAKKRTNIIPVIEDARHPHKYRMLIAMVDVIFADVAQPDQTRIVALNAHTFLRNGGHFVISIKANCIDSTASAEAVFASEVKKMQQENMKPQEQLTLEPYERDHAVVVGVYRPPPKVKN |
